Entries after “also recorded” stand apart in the source; their conditions may differ. At least one structure is not confirmed: it was looked up by name or label, or the drawing left a doubt.
What was measured:
nasal airways = experiment: Intranasal AAV9 regulatable ffLuc expression in mice after rapamycin induction (IVIS imaging); assay type: in vivo, C57BL/6 mice
Experimental: AAV2/9.Z12i.ffLuc and AAV2/9.CMV.Tf were used in this example. These vectors were prepared as described in S J Chen et al, Hu Gene Therapy, 24: 270-278 (August 2013). AAV2/9.Z12i.ffLuc contains:
C57BL/6 mice (6 to 8 weeks of age) were purchased from Charles River Laboratories (Wilmington, Mass.) and kept under pathogen-free conditions at the Animal Facility of the Translational Research Laboratories. Mice were anesthetized using an intraperitoneal (IP) injection of ketamine/xylazine. For vector administrations, mice were inoculated intranasally (IN) with […] in the right and left nostril for a total dose of 10^11 genome copies (GC) in 25 μL. All animal procedures were approved by the Institutional Animal Care and Use Committees of the University of Pennsylvania.
Topical (IN) application: mice were anaesthetized with ketamine/xylazine and 5 mins later 5 μL of rapamycin solution for a total dose of 10 mg/kg was delivered to the right and left nostril IN. Systemic (IP) application: mice were physically restrained and injected IP with 50 μL of a 1 mg/mL rapamycin solution.
Mice were anaesthetized with ketamine/xylazine and 5 mins later 10 μL of 15 mg/ml D-luciferin (Caliper, USA) was delivered to the right and left nostril IN. Five mins later mice were imaged using the IVIS® Xenogen imaging system [Perkin-Elmer]. Quantitation of signal was calculated using the Living Image® 3.0 Software. […]

NHP eyes = experiment: Subretinal AAV8 regulatable antibody expression in NHP eyes (ELISA); assay type: in vivo, Macaca mulatta (rhesus monkeys); settings: several inductions over 4 years
Experimental: For this experiment a 3 year old male Macaca mulatta (rhesus monkeys) was purchased from Covance Research Products, Inc.
For subretinal (SR) vector injections, a needle was inserted through a sclerotomy 2 mm posterior to the limbus at the 2 or 10 o'clock position. It was then advanced through the vitreous to penetrate the retina in the posterior pole. Under microscopic control, up to 100 μL of anterior chamber fluid was removed and 150 μL of viral vector solution diluted in phosphate buffered saline (PBS) was injected into the subretinal space, thereby raising a dome-shaped retinal detachment (bleb). The detachment covered a small fraction (approximately ⅛th) of the area of the retina in the macula. The NHP received AAV8 vectors injected subretinally into the left (OS) and right (OD) eyes. The two vectors that were injected were: AAV2/8.CMV.TF1Nc (alternate name for AAV2/8.CMV.TF) and AAV2/8.Z12i.AbH.FF2A.AbL.BGH. The vectors were mixed at 1:1 ratio at 10^11 GC and delivered SR in a total volume of 150 μL.
Macaques were induced at various times following the SR vector injection. Rapamycin (2 mg/kg) was delivered IV in a solution of 1.2% Tween 80, 27.1% Polyethylene Glycol, 71.7% Nuclease Free Water. At designated times post vector delivery, a tap was performed on the OD eye (baseline) and the NHP then injected IV with 2 mg/kg rapamycin. […]

**Q.** What does the source list for `CO[C@H]1C[C@@H]2CC[C@@H](C)[C@@](O)(O2)C(=O)C(=O)N2CCCC[C@H]2C(=O)O[C@H]([C@H](C)C[C@@H]2CC[C@@H](O)[C@H](OC)C2)CC(=O)[C@H](C)/C=C(\C)[C@@H](O)[C@@H](OC)C(=O)[C@H](C)C[C@H](C)/C=C/C=C/C=C/1C` [rapamycin]?
**A.** luciferase expression following rapamycin induction, single components (nasal airways; component delivered alone IN): no luciferase expression; return to background levels (nasal airways; three separate IN rapamycin inductions over three months): background levels by seven days; change of maximal antibody expression post induction over time (NHP eyes): a decrease of the maximal expression of Antibody post induction was observed; also recorded: a decrease of the maximal expression of antibody post-induction was observed
